In PubChem BioAssay AID2685 (National Center for Advancing Translational Sciences (NCATS), 2010):
The other results are listed elsewhere or left out. Shown are side measurements of this screen, not its main read-out; they come without a call. The list favours compounds with an active or inconclusive main result. The note in brackets gives the kind of curve behind each potency; many fits are weak.

Experiment: qHTS Assay for Lipid Storage Modulators in Drosophila S3 Cells;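 on cell number change: cells counted by Cell Tracker Red CMTPX staining in the red channel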
Settings: BODIPY lipid droplet fluorescence, 18-24 h; for cell number change: measured here: cell count max response, cells fed with added oleic acid
In short: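 Laser-scanning cytometry quantifies lipid droplet accumulation (500–530 nm total intensity; droplet/cell object ratio) in oleic acid-fed (400 uM added) Drosophila S3 cells treated with a concentration series. 20 uM Triacsin C defined 100% inhibition.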

[1] = measured here: cell number channel AC50, cells fed with added oleic acid
[2] = measured here: lipid fluorescence (Fed channel) AC50, cells fed with added oleic acid

SMILES	cell number change	AC50 [1]	AC50 [2]
Cc1ccc(CNCC(O)c2ccccc2)s1 (configuration not stated)	-17.1%		
COc1ccc(C2CC(=O)C3=C(C2)Nc2ncnn2C3c2ccccc2C)c(OC)c1 (configuration not stated)	21.8%	2.06 µM [rising, full curve, poor fit]	
CCOC(=O)c1c(NC(=O)CSc2ncn[nH]2)sc(C)c1C		0.291 µM [rising, full curve]	1.3 µM [rising, full curve]
COc1cc(O)c(C(CC(=O)N2CCCC(C)C2)c2ccc3c(c2)OCO3)c(OC)c1 (configuration not stated)	47.1%	29.1 µM [rising, single point]	32.6 µM [rising, partial curve]
Cc1cc(C)nc(SCc2nnc(SCC(=O)N3CCCc4ccccc43)n2C)n1	18.7%		7.31 µM [rising, partial curve]
COc1cc(C#N)ccc1OCC(=O)c1ccc2c(c1)OCCO2	17.2%	2.06 µM [rising, single point]	
CCOc1ccccc1N1CCN(S(=O)(=O)c2cccs2)CC1	-0.65%		29.1 µM [rising, single point]
O=C(CNC(=O)Cc1ccccc1)NCC(=O)OCC(=O)c1cccc2ccccc12	-12.5%	6.51 µM [falling, single point]	3.26 µM [falling, partial curve, poor fit]
COc1ccc(-c2noc(CNC(=O)CCCN3C(=O)[C@H]4CC=CC[C@H]4C3=O)n2)cc1	-51.3%	29.1 µM [falling, single point]	29.1 µM [falling, single point]
O=c1c2ccccc2nnn1Cc1ccc(Br)cc1	15%		
O=C(NCc1ccc(F)cc1)C(c1ccccc1)N(C(=O)c1csnn1)c1ccccc1 (configuration not stated)	10.7%		29.1 µM [rising, single point]
CCOc1ccc(-c2cc(C(=O)O)c3ccccc3n2)cc1	-5.6%		
S=C(NC1CCCCC1)N1CCN(C2CCCCC2)CC1	-15.7%		6.51 µM [falling, single point]
CCOC(=O)C1CCN(S(=O)(=O)c2ccccc2)CC1	-18.8%		6.51 µM [falling, single point]
Cc1ccccc1N=Nc1c(C)[nH]n(C(N)=S)c1=O	3.68%		2.06 µM [rising, full curve, poor fit]
CC(=Nc1ccccc1C)C1=C(O)CSC1=O		0.092 µM [falling, full curve, poor fit]	
O=C(O)c1cc(-c2ccc(O)cc2)nc2ccccc12	-86%	14.6 µM [falling, partial curve, poor fit]	6.51 µM [falling, single point]
CCN(CC(=O)NCc1cccs1)C(=O)c1cc(S(=O)(=O)NCc2ccccc2)ccc1C	-43.4%		
CCOc1cc2nc(-c3ccc(OC)c(OC)c3)nc(NCCCN3CCOCC3)c2cc1OC		0.731 µM [rising, single point]	0.92 µM [rising, full curve]
CCOC(=O)CCC(NC(=O)CCCC(=O)NC(CCC(=O)OCC)C(=O)OCC)C(=O)OCC (configuration not stated)	-2.55%		9.2 µM [falling, partial curve, poor fit]

Some values from the results shown:
In cell number change, COc1cc(C#N)ccc1OCC(=O)c1ccc2c(c1)OCCO2 has 17.2%
In AC50 [2], O=C(CNC(=O)Cc1ccccc1)NCC(=O)OCC(=O)c1cccc2ccccc12 has 3.26 µM [falling, partial curve, poor fit]
In cell number change, COc1ccc(C2CC(=O)C3=C(C2)Nc2ncnn2C3c2ccccc2C)c(OC)c1 (configuration not stated) has 21.8%

The listing continues:

SMILES	cell number change	AC50 [1]	AC50 [2]
CCc1ccccc1NC(=O)CN1CCN(C(=O)CNC(=O)c2ccc(N3CCCC3=O)cc2)CC1	12.9%	2.59 µM [falling, partial curve]	2.06 µM [falling, partial curve, poor fit]
O=C(CN1CCN(c2ccccc2)CC1)Nc1ccc2c(c1)OCCO2	49.3%	29.1 µM [rising, single point]	29.1 µM [rising, single point]
O=C(Nc1ccccc1-c1nnn(CC(=O)N2CCc3ccccc3C2)n1)C1CCC1	-5.99%		18.4 µM [falling, single point]
O=C(NCC1CC1)Nc1cccc(Cl)c1	15.3%		
Cc1cccn2c(=O)c(C=Nc3ccccc3)c(NCCO)nc12	-5.66%		18.4 µM [rising, single point]
Cc1ccc(OC(=O)c2c(C)nn(-c3ccccc3)c2C)cc1	-36.3%	32.6 µM [falling, single point]	0.164 µM [falling, full curve, poor fit]
O=C(Nc1ccc2c(c1)OCCO2)C1CC1c1ccccc1 (configuration not stated)	74.8%	13 µM [rising, partial curve]	18.4 µM [rising, partial curve]
CCC1Oc2ccc(C)cc2N(CC(=O)NC2CCCCC2)C1=O (configuration not stated)	8.82%		0.231 µM [rising, full curve, poor fit]
O=C(C1=C(c2ccccc2)C(=O)c2ccccc2C1=O)c1ccccc1	-30.7%	32.6 µM [falling, single point]	32.6 µM [falling, single point]
Cc1ccc(C)c(N(CC(=O)NCCc2ccccc2)C(=O)CCC(=O)Nc2ccccn2)c1	-15.7%		6.51 µM [falling, single point]
COc1ccccc1C/C(N)=N/OC(=O)/C=C/c1ccccc1	42.3%	4.61 µM [rising, full curve, poor fit]	3.26 µM [rising, full curve]
O=C(CN(c1ccc(F)cc1)S(=O)(=O)c1ccccc1)NC1CCCCCC1	-5.87%		7.31 µM [falling, single point]
CCOc1ccc2c(c1)C(=O)C(=O)N2CC1COc2ccccc2O1 (configuration not stated)	-10.6%	3.26 µM [rising, single point]	6.51 µM [rising, partial curve, poor fit]
CCOC(=O)c1cc(CC)sc1NC(=O)COC(=O)c1cnccn1	-17.6%		0.651 µM [falling, partial curve, poor fit]
COc1nc2ccccc2nc1N1CCN(Cc2ccc3c(c2)OCO3)CC1	50%	11.6 µM [rising, partial curve, poor fit]	
Cc1cc(N2CCN(C/C=C/c3ccccc3)CC2)n2ncnc2n1	-30.6%	0.82 µM [falling, full curve, poor fit]	10.3 µM [falling, partial curve]
COc1ccc(CCn2c(C)c(C(C)=O)c3cc(OC(=O)c4ccco4)ccc32)cc1OC	19.2%		3.26 µM [rising, partial curve]
COC(=O)CNC(=O)c1cccs1	-25.4%	0.00461 µM [falling, full curve, poor fit]	0.0092 µM [falling, full curve, poor fit]
CN(CC(=O)Nc1ccc(F)cc1)C(=O)CSc1nccn1C	2.01%		
Cc1cccc(OCC(=O)Nc2ccccc2-c2ccccc2)c1	5.8%		

SMILES	cell number change	AC50 [1]	AC50 [2]
O=C(CCNC(=O)c1ccc(Br)cc1)Nc1nccs1		0.13 µM [rising, full curve, poor fit]	0.116 µM [rising, full curve, poor fit]
NC(=O)c1ccc(NCC2CCCO2)c([N+](=O)[O-])c1 (configuration not stated)			35.5 µM [rising, single point]
CC(C)C[C@@H](CN(N=O)[C@@H](Cc1ccccc1)CN(C)N=O)N(CCc1ccccc1)N=O	13.2%		0.0651 µM [rising, full curve, poor fit]
NS(=O)(=O)c1ccc(CNS(=O)(=O)c2cc(C(=O)O)ccc2Cl)cc1	-5.54%		18.4 µM [falling, single point]
N#Cc1ccc(C(=O)OCCc2cc3ccccc3c(=O)o2)cc1	-15.6%		9.2 µM [falling, single point]
Cc1ccc(C)c(S(=O)(=O)NCc2ccc(C(=O)N3CCN(c4ccccc4)CC3)cc2)c1	-31.4%	20.6 µM [falling, single point]	7.31 µM [falling, partial curve]
COc1ccc(-n2c(Cc3cccn3C)nnc2SCC(=O)Nc2cc(C)cc(C)c2)cc1	6.97%		
O=C(Cc1ccccc1)Nc1nnc(-c2ccccc2)o1	23.4%		
CN(C)c1ccc(P(=O)(COc2ccc([N+](=O)[O-])cc2)c2ccc(N(C)C)cc2)cc1	5.53%		0.103 µM [rising, full curve, poor fit]
N#Cc1ccccc1Cn1c(=O)n(Cc2ccc(C(=O)NCc3ccco3)cc2)c(=O)c2ccccc21	-28%		23.1 µM [falling, single point]
CCN(CC)C(=O)c1[nH]cnc1C(=O)NCC(=O)OCc1ccccc1	2.1%		
Cc1cc(NC(=O)Cn2c(=O)oc3ccccc32)no1	14.3%		0.058 µM [rising, full curve, poor fit]
Cc1noc(C)c1CSCC(=O)N(C)CC(=O)Nc1ccccc1Br		6.51 µM [rising, single point]	
COc1ccccc1NC(=O)Cn1c(C)cc(=O)c2cccc(OC)c21	-11.5%		11.6 µM [falling, partial curve]
COc1ccc(/C(C)=N/NC(=S)NCc2ccco2)cc1	-7.29%		
CCOC(=O)C1=C(O)/C(=C\c2ccc(O)c(OCC)c2)N=C1C	11.8%	4.11 µM [rising, single point]	
CC1Cc2cc(/C=C3/SC(N4CCC(C(N)=O)CC4)=NC3=O)ccc2O1 (configuration not stated)	-8.19%		0.461 µM [rising, full curve, poor fit]
CCOC(=O)c1cnn(-c2nc(OCC)cc(OCC)n2)c1C	3.37%		
CC(Sc1nnnn1-c1ccc(Cl)cc1)C(=O)NCC(=O)Nc1ccc(F)c(F)c1F (configuration not stated)		1.03 µM [rising, full curve]	14.6 µM [rising, single point]
